Reference: patent US20030032674A1, “Use of unsaturated fatty acids to treat severe inflammatory diseases” (priority 2001, published 2003)
At least one compound was matched to its structure with a doubt left.

The chains behind the UniProt entries cited, without tags or fusion partners. Where a name states a change or a piece, a line headed by the entry shows the natural chain unless it says otherwise. Residues count along the entry.
UniProt Q99558: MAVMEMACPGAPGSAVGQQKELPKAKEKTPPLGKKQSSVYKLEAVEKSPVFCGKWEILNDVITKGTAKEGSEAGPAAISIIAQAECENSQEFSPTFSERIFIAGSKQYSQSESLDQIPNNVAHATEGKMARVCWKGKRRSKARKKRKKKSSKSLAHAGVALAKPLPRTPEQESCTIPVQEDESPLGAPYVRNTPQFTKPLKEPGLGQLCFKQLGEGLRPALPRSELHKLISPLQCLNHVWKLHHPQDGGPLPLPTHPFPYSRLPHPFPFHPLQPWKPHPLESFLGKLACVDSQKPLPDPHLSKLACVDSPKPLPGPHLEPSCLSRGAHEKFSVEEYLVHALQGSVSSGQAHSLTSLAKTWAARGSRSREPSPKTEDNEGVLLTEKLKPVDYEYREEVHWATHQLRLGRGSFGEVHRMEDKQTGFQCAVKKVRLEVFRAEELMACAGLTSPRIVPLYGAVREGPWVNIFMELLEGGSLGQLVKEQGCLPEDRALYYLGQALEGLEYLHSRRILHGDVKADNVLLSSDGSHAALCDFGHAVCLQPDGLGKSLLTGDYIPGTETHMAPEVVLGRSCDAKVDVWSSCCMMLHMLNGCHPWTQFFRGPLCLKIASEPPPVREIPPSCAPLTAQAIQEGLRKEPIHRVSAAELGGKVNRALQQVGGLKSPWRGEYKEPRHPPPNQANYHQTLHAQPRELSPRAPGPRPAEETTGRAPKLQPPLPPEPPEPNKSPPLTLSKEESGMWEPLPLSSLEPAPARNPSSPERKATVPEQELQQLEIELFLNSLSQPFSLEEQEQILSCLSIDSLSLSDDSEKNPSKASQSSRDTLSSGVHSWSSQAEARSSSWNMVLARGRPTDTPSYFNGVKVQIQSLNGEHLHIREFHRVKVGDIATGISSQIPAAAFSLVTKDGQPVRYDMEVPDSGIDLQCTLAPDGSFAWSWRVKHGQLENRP
UniProt O60603, 21-784, species assumed: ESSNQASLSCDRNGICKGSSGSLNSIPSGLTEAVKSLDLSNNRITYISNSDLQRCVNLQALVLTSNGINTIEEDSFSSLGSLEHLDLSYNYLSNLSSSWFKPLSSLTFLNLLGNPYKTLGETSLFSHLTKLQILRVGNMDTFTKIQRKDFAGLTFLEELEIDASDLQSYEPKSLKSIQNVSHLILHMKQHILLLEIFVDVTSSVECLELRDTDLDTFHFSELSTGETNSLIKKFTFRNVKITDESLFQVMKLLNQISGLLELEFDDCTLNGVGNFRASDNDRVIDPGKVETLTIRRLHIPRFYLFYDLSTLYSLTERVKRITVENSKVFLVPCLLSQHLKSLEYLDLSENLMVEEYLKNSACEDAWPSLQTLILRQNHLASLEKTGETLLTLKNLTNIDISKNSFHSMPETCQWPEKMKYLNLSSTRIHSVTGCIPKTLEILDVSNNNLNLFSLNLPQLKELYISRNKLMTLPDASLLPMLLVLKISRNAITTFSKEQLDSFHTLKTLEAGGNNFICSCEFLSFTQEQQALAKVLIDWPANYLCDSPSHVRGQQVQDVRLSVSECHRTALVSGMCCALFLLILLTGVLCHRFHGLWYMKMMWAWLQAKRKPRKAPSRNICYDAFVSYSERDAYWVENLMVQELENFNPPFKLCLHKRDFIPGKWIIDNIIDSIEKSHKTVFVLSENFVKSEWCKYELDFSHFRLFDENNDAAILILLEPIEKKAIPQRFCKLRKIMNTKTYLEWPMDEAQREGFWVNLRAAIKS

How the values were obtained:
COX-2 = biological target: T1, COX-2 (Ovis aries, UniProt P79208); details: cited from earlier work
T1 sequence (P79208 17-603): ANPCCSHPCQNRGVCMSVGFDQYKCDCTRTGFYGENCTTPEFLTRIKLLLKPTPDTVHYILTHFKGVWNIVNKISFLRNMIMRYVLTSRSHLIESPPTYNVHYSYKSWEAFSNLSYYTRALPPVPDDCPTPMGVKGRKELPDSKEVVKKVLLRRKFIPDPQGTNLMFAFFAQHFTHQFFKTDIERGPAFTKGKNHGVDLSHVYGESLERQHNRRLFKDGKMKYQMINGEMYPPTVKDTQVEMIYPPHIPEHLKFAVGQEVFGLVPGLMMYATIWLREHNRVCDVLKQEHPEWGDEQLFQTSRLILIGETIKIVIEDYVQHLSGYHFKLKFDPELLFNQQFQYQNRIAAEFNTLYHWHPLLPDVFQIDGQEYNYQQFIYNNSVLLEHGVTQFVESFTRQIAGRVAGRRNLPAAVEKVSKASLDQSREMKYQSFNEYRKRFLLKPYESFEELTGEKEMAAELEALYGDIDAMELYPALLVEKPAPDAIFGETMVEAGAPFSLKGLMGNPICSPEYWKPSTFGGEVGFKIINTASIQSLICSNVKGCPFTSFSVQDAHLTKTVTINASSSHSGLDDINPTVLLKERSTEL

COX-2 expression = assay: COX-2 immunoblot (Western blot) in RAW 264.7 cells; assay type: cell-based, murine
Description: (§1) Cell culture—RAW 264.7 cells (a murine macrophage-like cell line, ATCC TIB-71), 293T cells (a human embryonic kidney cell line, provided by Sam Lee, Beth Israel Hospital. Boston, Mass.), and HT-29 cells (a human colon adenocarcinoma cell line, ATCC HTB-38) were cultured in Dulbecco's modified Eagle's medium (DMEM) containing 10% (v/v) heat-inactivated fetal bovine serum (FBS, Intergen) and 100 units/ml Penicillin and […] Streptomycin (GIBCO-BRL) at 37° C. in a 5% CO2/air environment. Cells (2×10^6) were plated in 60-mm dishes and cultured for an additional 18 hours to allow the number of cells to approximately double. Cells were maintained in serum-poor (0.25% FBS) medium for another 18 hours prior to the treatment with indicated reagents.
Preparation of fatty acids-albumin complexes—All fatty acids were solubilized in ethanol, and then combined with fatty acid-free and low-endotoxin BSA at a molar ratio of 10:1 (fatty acid: albumin) in serum-poor medium (0.25% FBS). Fatty acids-albumin complex solution was freshly prepared prior to each experiment. […]
(§2) After 11 h, cell lysates were analyzed by COX-2, iNOS, IL-1α, or GAPDH immunoblot using a Western blot analysis.
The cell lysates were analyzed by COX-2 or GAPDH immunoblot.
(§3) RAW 264.7 cells were pretested with various concentrations (5, 10, 20, and 50 μM) of docosahexaenoic acid (C22:6n-3) for 3 hours, and then stimulated with LPS (100 ng/ml) for 8 hours and analyzed by COX-2, iNOS, IL-1 a or GAPDH immunoblot.
Cells stably transfected with NFκB(5×) or COX-2 promoter reporter genes were pretreated with various concentrations of each fatty acid for 3 hrs. […] After 8 hrs, cell lysates were prepared and luciferase activities were determined. Data are expressed as a percentage of LPS treatment alone. […] After 8 hr, cell lysates were analyzed by COX-2 and actin immunoblotting.

iNOS expression = assay: iNOS immunoblot in RAW 264.7 cells; assay type: cell-based, murine; details: pretreated 5, 10, 20, 50 μM 3 hours; LPS 100 ng/ml 8 hours
Description: as §1
(§4) Preparation of fatty acids-albumin complexes—All fatty acids were solubilized in ethanol, and then combined with fatty acid-free and low-endotoxin BSA at a molar ratio of 10:1 (fatty acid: albumin) in serum-poor medium (0.25% FBS). […]
as §2, §3

IL-1α expression = assay: IL-1α immunoblot in RAW 264.7 cells; assay type: cell-based, murine; details: pretreated 5, 10, 20, 50 μM 3 hours; LPS 100 ng/ml 8 hours
Description: as §1, §4, §2, §3

[1] = system: constitutively active TLR4 (DTLR4); assay: COX-2 reporter in RAW 264.7 cells co-transfected with constitutively active TLR4; assay type: cell-based, murine; details: 20 mM; 11 hours
[2] = system: constitutively active MyD88(DToll); assay: COX-2 reporter in RAW 264.7 cells co-transfected with constitutively active MyD88; assay type: cell-based, murine; details: 20 mM; 11 hours
[3] = biological target: T2, NFκB-inducing kinase (NIK) (Homo sapiens, UniProt Q99558); assay: COX-2 reporter in RAW 264.7 cells co-transfected with NIK; assay type: cell-based, murine; details: 20 mM; 11 hours
T2 construct: expressed in transfected cells; host or cells: RAW 264.7 (murine macrophage-like)

IkBa protein degradation = assay: IkBa immunoblot in LPS-stimulated RAW 264.7 cells; assay type: cell-based, murine; details: pretreated 5, 10, 20, 50 μM 3 hours; LPS 100 ng/ml 30 min
[4] = system: constitutively active human TLR4 (CD4-TLR4); assay: NFκB reporter in 293T cells transfected with constitutively active TLR4; assay type: cell-based
Description: Plasmids and DNA Constructs—All plasmids and constructs were obtained or made as reported in either S. H. Rhee and D. Hwang, “Murine TOLL-like receptor 4 confers lipopolysaccaride responsiveness as determined by activation of NFκB and expression of the inducible cyclooxygenase,” Journal of Biological Chemistry, vol. 275, pp. 34035-34040 (2000); and J. Y. Lee et al., “Saturated fatty acids, but not unsaturated fatty acids, induce the expression of cyclooxygenase-2 mediated through TOLL-like receptor 4,” Journal of Biological Chemistry, vol. 276, pp. 16683-16689 (2001). Briefly, the luciferase reporter plasmids (pGL2) containing the promoter region of the murine COX-2 gene (−3201/+93 or −1017/+93) were provided by David Dewitt (Michigan State University, East Lansing, Mich.). To prepare the wild-type COX-2 promoter fragment, polymerase chain reaction (PCR) was performed with the primers named Kpn-COX2-For and Hind-COX2-Rev using the murine COX-2 (−1017/+93) luciferase reporter plasmid as a template. To prepare the mutant COX-2 promoter fragment containing mutated NFκB site, Kpn-COX2-Fmut and Hind-COX2-Rev were used as primers. Each PCR fragment was inserted into the KpnI and HindIII sites of pGL2 to generate the wild-type or mutant COX-2 (−410/+86) luciferase reporter constructs, respectively. Sequences for wild-type NFκB site and the primers were used as reported elsewhere. […]

NIK(WT) = biological target: T3, NIK(WT) (Homo sapiens, UniProt Q99558); assay: NFκB reporter in 293T cells transfected with wild type NIK; assay type: cell-based
T3 construct: expressed in transfected cells; host or cells: 293T (human embryonic kidney)

TLR2 = biological target: T4, TLR2 (Homo sapiens, UniProt O60603); assay: NFκB reporter in TLR2-transfected 293T cells; assay type: cell-based; details: PamCAG 100 ng/ml
T4 construct: expressed in transfected cells; host or cells: 293T (stated not to express TLR2)
Description: Plasmids and DNA Constructs—All plasmids and constructs were obtained or made as reported in either S. H. Rhee and D. Hwang, “Murine TOLL-like receptor 4 confers lipopolysaccaride responsiveness as determined by activation of NFκB and expression of the inducible cyclooxygenase,” Journal of Biological Chemistry, vol. 275, pp. 34035-34040 (2000); and J. Y. Lee et al., “Saturated fatty acids, but not unsaturated fatty acids, induce the expression of cyclooxygenase-2 mediated through TOLL-like receptor 4,” Journal of Biological Chemistry, vol. 276, pp. 16683-16689 (2001). Briefly, the luciferase reporter plasmids (pGL2) containing the promoter region of the murine COX-2 gene (−3201/+93 or −1017/+93) were provided by David Dewitt (Michigan State University, East Lansing, Mich.). To prepare the wild-type COX-2 promoter fragment, polymerase chain reaction (PCR) was performed with the primers named Kpn-COX2-For and Hind-COX2-Rev using the murine COX-2 (−1017/+93) luciferase reporter plasmid as a template. To prepare the mutant COX-2 promoter fragment containing mutated NFκB site, Kpn-COX2-Fmut and Hind-COX2-Rev were used as primers. […]
Acylation by saturated fatty acids of bacterial lipopeptides is also required for the activation of TLR2. […] After 18 hr, luciferase activities were determined. […]

Compound	effect on COX-2 (inhibition) (COX-2)	effect on LPS-induced COX-2 expression (immunoblot) (COX-2 expression; DHA 20 μM or C12:0 75 μM 3 hrs, LPS 200 ng/ml for DHA, 1 ng/ml for C12:0, 8 hr)	COX-2 expression induced by fatty acid (immunoblot) (COX-2 expression; RAW 264.7, 75 μM fatty acid)	effect on LPS-induced COX-2 expression (immunoblot) (COX-2 expression; pretreated 5, 10, 20, 50 μM 3 hours, LPS 100 ng/ml 8 hours)	effect on LPS-induced iNOS expression (immunoblot) (iNOS expression)	effect on LPS-induced IL-1α expression (immunoblot) (IL-1α expression)	effect on constitutively active TLR4 (DTLR4)-induced COX-2 expression [1]	effect on COX-2 expression induced by constitutively active MyD88 [2]	effect on COX-2 expression induced by NIK [3]	effect on LPS-induced degradation of IkBa protein (NFκB activation) (IkBa protein degradation)	effect on CD4-TLR4-induced NFκB activation [4]	effect on NFκB activation induced by NIK (NIK(WT))	effect on NFκB activation induced by PamCAG (TLR2)
CC/C=C\C/C=C\C/C=C\C/C=C\C/C=C\CCCC(=O)O [eicosapentaenoic acid]	Inhibitory effects												
CC/C=C\C/C=C\C/C=C\C/C=C\C/C=C\C/C=C\CCC(=O)O [docosahexaenoic acid]	Inhibitory effects	suppressed	unable to induce COX-2 expression	inhibits	inhibits	inhibits	partially inhibited	unable to inhibit	unable to inhibit	inhibition	inhibited	does not inhibit	inhibited
